Experimental data published in PubChem BioAssay AID588591 (National Center for Advancing Translational Sciences (NCATS), 2011).
Only a part is listed here, and it is no random draw. Records with an inconclusive call do not appear. Calls of active or inactive are those of the source. Calls follow the shape of the dose curve; as a rule, active = well fitted inhibition curve with a large enough effect; inconclusive = small, poorly fitted or top-dose-only effect, or another doubt; inactive = no such curve, though single readings can be large or run the other way.

Sequences of proteins named here, by UniProt entry; tags and fusion partners are left off. A change or cut given only in a name is not applied to a line headed by its entry.
UniProt Q9Y253: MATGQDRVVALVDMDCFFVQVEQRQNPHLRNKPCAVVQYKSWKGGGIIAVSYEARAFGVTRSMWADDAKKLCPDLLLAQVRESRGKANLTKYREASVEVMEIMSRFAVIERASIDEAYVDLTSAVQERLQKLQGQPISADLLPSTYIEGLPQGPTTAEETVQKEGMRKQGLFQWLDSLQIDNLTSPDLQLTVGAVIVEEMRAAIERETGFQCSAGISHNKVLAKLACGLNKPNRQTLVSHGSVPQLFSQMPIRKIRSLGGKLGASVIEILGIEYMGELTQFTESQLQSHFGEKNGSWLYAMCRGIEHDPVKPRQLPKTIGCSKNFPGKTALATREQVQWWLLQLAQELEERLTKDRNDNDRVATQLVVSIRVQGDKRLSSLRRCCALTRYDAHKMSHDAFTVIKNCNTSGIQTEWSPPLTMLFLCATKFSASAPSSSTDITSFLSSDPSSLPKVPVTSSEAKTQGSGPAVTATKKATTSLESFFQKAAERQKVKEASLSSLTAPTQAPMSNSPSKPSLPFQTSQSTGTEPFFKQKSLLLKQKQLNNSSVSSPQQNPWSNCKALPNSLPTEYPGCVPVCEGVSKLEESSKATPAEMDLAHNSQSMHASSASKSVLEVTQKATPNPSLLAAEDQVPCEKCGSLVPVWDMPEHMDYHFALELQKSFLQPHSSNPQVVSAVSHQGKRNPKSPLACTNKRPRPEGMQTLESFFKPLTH

These molecules were tested against DNA polymerase eta (Homo sapiens) (UniProt Q9Y253) (assay: qHTS for Inhibitors of Polymerase Eta). Details: recombinant Pol eta, fluorescent DNA replication assay.
From the text: The Y-family of DNA polymerases, such as Pol eta, are specifically involved in DNA repair. Pol eta copies undamaged DNA with a lower fidelity than other DNA-directed polymerases. However, it accurately replicates UV-damaged DNA; when thymine dimers are present, this polymerase inserts the complementary nucleotides in the newly synthesized DNA, thereby bypassing the lesion and suppressing the mutagenic effect of UV-induced DNA damage. […] Thus, while pol eta's (and most likely iota's) normal function is to protect humans against the deleterious consequences of DNA damage, under certain conditions they can have deleterious effects on human health. As a consequence, we propose to utilize a high throughput replication assay to identify small molecule inhibitors of pol eta. […]
Three microliters of reagents (buffer in column 3 and 4 as negative control and 10 nM Pol eta in columns 1, 2, and 5-48) were dispensed into a 1,536-well black solid-bottomed plate. […] The plates were then incubated for 15 min at room temperature, and 1 µL substrate (50 nM final concentration) was added to start the reaction and kinetically read twice at 0 min and 10 min on the Viewlux reader
Potency is read from the fitted curve at half-maximal effect.

Structure (SMILES) | Potency
CS(=O)(=O)Nc1cccc2[nH]ncc12 | active: 89.1 µM
